{"source": "paper PMC8275550", "about": "“Developmental Neurotoxicity of Fipronil and Rotenone on a Human Neuronal In Vitro Test System” (Neurotoxicity Research, 2021)", "key": {"NT2 neurons": {"tested_on": "NT2 neurons", "format": "cell-based, human", "conditions": "for DNT (IC50 ratio), neurite outgrowth: positive when IC50 ratio is larger than threshold 2.02; for DNT (sign diff), neurite outgrowth: positive when at least one concentration where specific endpoint differs significantly from control and from unspecific endpoint", "excerpt": "Two photographs/well at × 20 magnification were taken."}, "NT2 precursor cells [1]": {"tested_on": "NT2 precursor cells", "conditions": "unspecific compounds; ref Stern et al. (2014) Arch. Toxicol. 88: 127–136; cited from earlier work"}, "[2]": {"tested_on": "differentiating NT2 cells", "format": "cell-based, human", "conditions": "for DNT (IC50 ratio), neuronal differentiation: positive when IC50 ratio is larger than threshold 2.77; for DNT (sign diff), neuronal differentiation: positive when at least one concentration where specific endpoint differs significantly from control and from unspecific endpoint", "experimental": "As established in our previous study (Stern et al. [2014]), cells were seeded into 96-well plates (Corning Costar, Kaiserslautern, Germany) at 80,000 cells per well and incubated in DMEM/F12 with 10 µM retinoic acid (RA) for 4 days (one media change). Cells were incubated for further 5 days (one media change) in media containing 10 µM RA and up to seven concentrations of a test compound. On day 9 (5-day exposition), cell viability was measured using a resazurin reduction assay (Trinova Biochem, Giessen, Germany). Subsequently, cells were fixed for 15 min in PFA and immunolabeled for ß-tubulin type III as above (Fig. 1a). For control purposes, photographs were taken at × 20 magnification as above. Neuronal differentiation was determined by measuring red fluorescence (excitation 568 nm, emission 603 nm) in a multiwell-plate reader (Infinite 200, TECAN, Germany). As a confirmation of the viability data, cell number was also quantified by measuring DAPI fluorescence (excitation 350 nm, emission 488 nm)."}, "NT2 precursor cells [3]": {"tested_on": "NT2 precursor cells", "format": "cell-based, human", "conditions": "for DNT (IC50 ratio), migration: positive when IC50 ratio is larger than threshold 2.30; for DNT (sign diff), migration: positive when at least one concentration where specific endpoint differs significantly from control and from unspecific endpoint", "experimental": "As established before (Stern et al. [2014]), NT2 precursor cells were seeded in 96-mm bacteriological grade Petri dishes (Greiner, Hamburg, Germany) at a density of 4 × 10^6–5 × 10^6 cells per dish. Within 24 h, cells formed free-floating spherical aggregates of 300–800 µm diameter. On the first day, 10 ml of culture medium was added to each Petri dish. On the next days, medium with 10 μM retinoic acid (RA) was added and changed every 2–3 days by transferring the cell suspension to centrifuge tubes and centrifuge at 200 × g for 7 min. After 9 days in culture, aggregates were gently resuspended using a Pasteur pipette, and seeded at 60,000 cells per well into black 96-well plates with flat transparent bottom (Nunc). Plates were lined with poly-D-lysine and laminin (10 µg/ml each), equipped with silicone stoppers from the Oris Cell Migration Assay (AMS Biotechnology, Abingdon, UK). Cells were allowed to adhere overnight. On the next day, stoppers were pulled leaving a monolayer of cells with a circular hole of 2-mm diameter. […] After one wash in PBS, cells were fixed for 15 min in PFA, washed twice in PBS-T and stained with DAPI (0.5 µg/ml) for 5 min, followed by two washes in PBS. A black 96-hole plastic mask leaving a central circular area of 2-mm diameter for each well was clipped to the bottom of the plate. This allows viewing only those cells that had migrated into the free areas left by the silicone stoppers during seeding (Fig. 1b). Migration was quantified by taking two photographs of each well and measuring the distance of the migration front from the black margin of the mask in using ImageJ. Occasional asymmetries caused by slight inaccuracies of silicone stopper placement were compensated by averaging measurements in four quadrants per well. […] Average null-migration values were subtracted from migrated distance before evaluation."}, "[4]": {"tested_on": "differentiating NT2 cells", "conditions": "unspecific compounds; ref Stern et al. (2014) Arch. Toxicol. 88: 127–136; cited from earlier work"}, "[5]": {"conditions": "threshold of prediction model 2.02"}, "[6]": {"conditions": "threshold of prediction model 2.77"}, "[7]": {"conditions": "threshold of prediction model 2.30"}}, "note": "Read-outs that look alike come from different tables or passages of the source.", "data": [{"smiles": "O=CC[C@@H](O)[C@H](O)[C@H](O)CO", "note": "[2DG, 2-desoxy glucose]", "values": [{"measurement": "IC50 ratio (IC50 unspecific/IC50 specific), neurite outgrowth", "setting": "NT2 neurons; [5]", "value": "1,29"}]}, {"smiles": "CC(=O)Nc1ccc(O)cc1", "note": "[AAP, acetaminophen (paracetamol)]", "values": [{"measurement": "IC50 ratio (IC50 unspecific/IC50 specific), migration", "setting": "NT2 precursor cells [1]", "value": "1,21"}]}, {"smiles": "N#Cc1nn(-c2c(Cl)cc(C(F)(F)F)cc2Cl)c(N)c1S(=O)(=O)C(F)(F)F", "note": "[Fipronil sulfone, 5-Amino-1-[2,6-dichloro-4-(trifluoromethyl)phenyl]-4-(trifluoromethylsulfonyl)pyrazole-3-carbonitrile]", "values": [{"measurement": "DNT (IC50 ratio), neurite outgrowth", "setting": "NT2 neurons", "value": "No"}, {"measurement": "DNT (sign diff), neurite outgrowth", "setting": "NT2 neurons", "value": "No"}, {"measurement": "IC50 ratio (IC50 unspecific/IC50 specific), neurite outgrowth", "setting": "NT2 neurons; [5]", "value": 1.27}, {"measurement": "DNT (IC50 ratio), neuronal differentiation", "setting": "[2]", "value": "No"}, {"measurement": "DNT (sign diff), neuronal differentiation", "setting": "[2]", "value": "Yes"}, {"measurement": "IC50 ratio (IC50 unspecific/IC50 specific), neuronal differentiation", "setting": "[2]; [6]", "value": 1.62}, {"measurement": "DNT (IC50 ratio), migration", "setting": "NT2 precursor cells [3]", "value": "Yes"}, {"measurement": "DNT (sign diff), migration", "setting": "NT2 precursor cells [3]", "value": "Yes"}, {"measurement": "IC50 ratio (IC50 unspecific/IC50 specific), migration", "setting": "NT2 precursor cells [3]; [7]", "value": 4.41}]}, {"smiles": "N#Cc1nn(-c2c(Cl)cc(C(F)(F)F)cc2Cl)c(N)c1[S+]([O-])C(F)(F)F", "note": "(stereo not drawn) [Fipronil, 5-Amino-1-[2,6-dichloro-4-(trifluoromethyl)phenyl]-4-(trifluoromethylsulfinyl)pyrazole-3-carbonitrile]", "values": [{"measurement": "DNT (IC50 ratio), neurite outgrowth", "setting": "NT2 neurons", "value": "No"}, {"measurement": "DNT (sign diff), neurite outgrowth", "setting": "NT2 neurons", "value": "No"}, {"measurement": "IC50 ratio (IC50 unspecific/IC50 specific), neurite outgrowth", "setting": "NT2 neurons; [5]", "value": 1.0}, {"measurement": "IC50 ratio (IC50 unspecific/IC50 specific), neurite outgrowth", "setting": "NT2 neurons; threshold of prediction model 2.02, listed as fipronil", "value": 1}, {"measurement": "DNT (IC50 ratio), neuronal differentiation", "setting": "[2]", "value": "No"}, {"measurement": "DNT (sign diff), neuronal differentiation", "setting": "[2]", "value": "Yes"}, {"measurement": "IC50 ratio (IC50 unspecific/IC50 specific), neuronal differentiation", "setting": "[2]; [6]", "value": 1.58}, {"measurement": "IC50 ratio (IC50 unspecific/IC50 specific), neuronal differentiation", "setting": "[2]; threshold of prediction model 2.77, listed as fipronil", "value": 1.57}, {"measurement": "IC50 ratio (IC50 unspecific/IC50 specific), migration", "setting": "NT2 precursor cells [3]; [7]", "value": 2.49}]}, {"smiles": "N[C@@H](CCC(=O)[O-])C(=O)O.[Na+]", "note": "[Glu, sodium glutamate]", "values": [{"measurement": "IC50 ratio (IC50 unspecific/IC50 specific), neuronal differentiation", "setting": "[4]", "value": "1,96"}, {"measurement": "IC50 ratio (IC50 unspecific/IC50 specific), migration", "setting": "NT2 precursor cells [1]", "value": "1,09"}]}, {"smiles": "OO", "note": "[H2O2, hydrogen peroxide]", "values": [{"measurement": "IC50 ratio (IC50 unspecific/IC50 specific), neurite outgrowth", "setting": "NT2 neurons", "value": "1,63"}, {"measurement": "IC50 ratio (IC50 unspecific/IC50 specific), neuronal differentiation", "setting": "[2]", "value": "1,09"}, {"measurement": "IC50 ratio (IC50 unspecific/IC50 specific), migration", "setting": "NT2 precursor cells [3]", "value": "1,71"}]}, {"smiles": "CC(=O)N[C@@H](CS)C(=O)O", "note": "[NAC, (2R)-2-Acetamido-3-sulfanylpropanoic acid]", "values": [{"measurement": "IC50 ratio (IC50 unspecific/IC50 specific), neurite outgrowth", "setting": "NT2 neurons; [5]", "value": "1,00"}, {"measurement": "IC50 ratio (IC50 unspecific/IC50 specific), neuronal differentiation", "setting": "[2]; [6]", "value": "1,00"}, {"measurement": "IC50 ratio (IC50 unspecific/IC50 specific), migration", "setting": "NT2 precursor cells [3]; [7]", "value": "1,37"}]}, {"smiles": "CC1(C)S[C@@H]2[C@H](NC(=O)Cc3ccccc3)C(=O)N2[C@H]1C(=O)O", "note": "[PG, penicillin G]", "values": [{"measurement": "IC50 ratio (IC50 unspecific/IC50 specific), neurite outgrowth", "setting": "NT2 neurons; [5]", "value": "1,00"}, {"measurement": "IC50 ratio (IC50 unspecific/IC50 specific), neuronal differentiation", "setting": "[4]", "value": "1,15"}, {"measurement": "IC50 ratio (IC50 unspecific/IC50 specific), migration", "setting": "NT2 precursor cells [1]", "value": "1,74"}]}, {"smiles": "C=C(C)[C@H]1Cc2c(ccc3c2O[C@@H]2COc4cc(OC)c(OC)cc4[C@@H]2C3=O)O1", "note": "[Rotenone, (1S,6R,13S)-16,17-Dimethoxy-6-prop-1-en-2-yl-2,7,20-trioxapentacyclo[11.8.0.0^3,11.0^4,8.0^14,19]henicosa-3(11),4(8),9,14,16,18-hexaen-12-one]", "values": [{"measurement": "DNT (IC50 ratio), neurite outgrowth", "setting": "NT2 neurons", "value": "Yes"}, {"measurement": "DNT (sign diff), neurite outgrowth", "setting": "NT2 neurons", "value": "Yes"}, {"measurement": "IC50 ratio (IC50 unspecific/IC50 specific), neurite outgrowth", "setting": "NT2 neurons; [5]", "value": 18.16}, {"measurement": "DNT (IC50 ratio), neuronal differentiation", "setting": "[2]", "value": "Yes"}, {"measurement": "DNT (sign diff), neuronal differentiation", "setting": "[2]", "value": "Yes"}, {"measurement": "IC50 ratio (IC50 unspecific/IC50 specific), neuronal differentiation", "setting": "[2]; [6]", "value": 19.3}, {"measurement": "DNT (IC50 ratio), migration", "setting": "NT2 precursor cells [3]", "value": "Yes"}, {"measurement": "DNT (sign diff), migration", "setting": "NT2 precursor cells [3]", "value": "Yes"}, {"measurement": "IC50 ratio (IC50 unspecific/IC50 specific), migration", "setting": "NT2 precursor cells [3]; [7]", "value": 6.59}]}, {"smiles": "CC(C)=CCC/C(C)=C/CC/C(C)=C/CC[C@]1(C)CCc2c(C)c(O)c(C)c(C)c2O1", "note": "[α-tocotrienol, (2R)-2,5,7,8-Tetramethyl-2-[(3E,7E)-4,8,12-trimethyltrideca-3,7,11-trienyl]-3,4-dihydrochromen-6-ol]", "values": [{"measurement": "IC50 ratio (IC50 unspecific/IC50 specific), neurite outgrowth", "setting": "NT2 neurons; [5]", "value": "1,00"}, {"measurement": "IC50 ratio (IC50 unspecific/IC50 specific), neuronal differentiation", "setting": "[2]; [6]", "value": "1,84"}]}]}
